{
  "source": "paper PMC8113726",
  "binders": {"B1": {"name": "gelsolin (Xenopus laevis oocyte) (protein, UniProt P14885 1-417)", "chain": "FISKMGYPKQTQVQVLPESGETPLFKQFFKNWRDKEATDGMGVAYVPNHIAKIENVPFDVTVLHESPAMAAQHGMVDDGSGKKQIWRIENCEKVPVLESHYGQFYGGDSYIILYHYKSGGKQGQIIYTWQGDDSTKDEITASAILSAQLDEELGGGPVQVRVVQGKEPAHLISLFGGKPMIIYKGGTSREGGQTKDANVRLFQVRTSSSGFSRAVEVDNTASNLNSNDAFVLTTPSASYLWVGQGSTNVEKNGAKELLKILGVSASEIPEGQETDDFWGALGGKADYRTSARLKDKLNAHPPRLFACSNKTGRFIIEEVPGEISQDDLATDDVMLLDTWDQVYVWVGNEAQEDEKKEAIASAYKYIESDPANRDKRTPVAITKQGFEPPTFIGWFLGWEADYWDVDPLERAMAGLSS"}},
  "biological_target": "glutathione S-transferase (GST)-fused Xenopus ADF/cofilin (XAC) (Xenopus)",
  "assay": "pull-down; GST-fused XAC immobilised on an affinity column; Xenopus laevis oocyte extracts applied; bound proteins eluted with 1 M NaCl, 2 mM MgCl2, 1 mM DTT, 20 mM HEPES-KOH pH 7.2; SDS-PAGE, Coomassie, bands identified by peptide sequencing; only the target purified",
  "note": "These are yes or no findings as the source states them, for the method shown. In cells and extracts the contact can be indirect. Binding calls can cover weak binding; strength is not graded here.",
  "data": [
    {"binder": "B1", "values": [
      {"measurement": "binding", "value": "binds"}
    ]}
  ]
}
